Measured data: PubChem BioAssay AID743121 (NCATS, 2013)

Screen: 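Partners whose loss is lethal together with topoisomerase I blockade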 (primary screen)
Cell system: MDA-MB-231 cells, a human breast cancer line
Knock-down reagent: single siRNA against human genes, 20 nM siRNA (0.8 pmol per well)
Duration: 120 h (drug added 48 h after transfection, read 72 h later)
Challenge: camptothecin 20 nM (about EC30) for 72 h; vehicle 0.1% DMSO in parallel plates
Measured: 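CellTiter-Glo ATP signal, scaled to control siRNA as percent viability; sensitisation given as log2 of untreated divided by camptothecin-treated viability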
Direction: log2 vehicle/camptothecin viability: higher = stronger sensitisation to camptothecin
Call rule: 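Each gene scored by redundant siRNA activity (RSA) over its individual siRNA ratios; a gene is called active at p < 0.001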
This is one part, drawn at random, of about 26,000 deposited reagents. 167 of them (0.63%) were called active. 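Calls are per gene from RSA p-values that are not deposited; an individual active-marked siRNA can sensitise only weakly.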 The numbers tell different reagents against one gene apart. Further read-outs or replicates are left out here.

Which result is listed for SERPINB3 #1?
log2 vehicle/camptothecin viability: -0.372; call: inactive

How did the screen score SERPINB3 #2?
log2 vehicle/camptothecin viability: -0.138; call: inactive

What is on record for SERPINB3 #3?
log2 vehicle/camptothecin viability: -0.351; call: inactive

What is on record for SERPINB3 #4?
log2 vehicle/camptothecin viability: -0.256; call: inactive

For WIPF2 #1, how do the results read?
log2 vehicle/camptothecin viability: -0.161; call: inactive

What did the screen give for WIPF2 #2?
log2 vehicle/camptothecin viability: 0.0583; call: inactive

What is on record for WIPF2 #3?
log2 vehicle/camptothecin viability: -0.488; call: inactive

How did the screen score PHYKPL #1?
log2 vehicle/camptothecin viability: -0.0397; call: inactive

Which result is listed for PHYKPL #2?
log2 vehicle/camptothecin viability: 0.301; call: inactive

What did the screen give for PHYKPL #3?
log2 vehicle/camptothecin viability: 0.478; call: inactive

For PLA2G3 #1, what was measured?
log2 vehicle/camptothecin viability: -0.538; call: inactive

With PLA2G3 #2, how do the results read?
log2 vehicle/camptothecin viability: 0.669; call: inactive

Which result is listed for PLA2G3 #3?
log2 vehicle/camptothecin viability: -0.0233; call: inactive

For PLA2G3 #4, what does the deposit list?
log2 vehicle/camptothecin viability: -0.245; call: inactive

For SMAD1 #1, what does the deposit list?
log2 vehicle/camptothecin viability: -0.0218; call: inactive

With SMAD1 #2, what does the deposit list?
log2 vehicle/camptothecin viability: -0.2; call: inactive

With SMAD1 #3, what does the deposit list?
log2 vehicle/camptothecin viability: -0.636; call: inactive

What is on record for LOC402036 (retired record) #1?
log2 vehicle/camptothecin viability: -0.272; call: inactive

With LOC402036 (retired record) #2, how do the results read?
log2 vehicle/camptothecin viability: -0.514; call: inactive

How did the screen score LOC402036 (retired record) #3?
log2 vehicle/camptothecin viability: -0.16; call: inactive

What is on record for RAB36 #1?
log2 vehicle/camptothecin viability: -0.5; call: inactive

For RAB36 #2, what was measured?
log2 vehicle/camptothecin viability: -0.112; call: inactive

How did the screen score RAB36 #3?
log2 vehicle/camptothecin viability: 0.331; call: inactive

Which result is listed for RAB36 #4?
log2 vehicle/camptothecin viability: 0.29; call: inactive

Laid out differently: results already given.
{"gene symbol": "PHYKPL", "reagent no.": 3, "log2 vehicle/camptothecin viability": 0.478, "call": "inactive"}
{"gene symbol": "PLA2G3", "reagent no.": 1, "log2 vehicle/camptothecin viability": -0.538, "call": "inactive"}
{"gene symbol": "PLA2G3", "reagent no.": 2, "log2 vehicle/camptothecin viability": 0.669, "call": "inactive"}
{"gene symbol": "PLA2G3", "reagent no.": 3, "log2 vehicle/camptothecin viability": -0.0233, "call": "inactive"}
